{
  "sequences": {"note": "Amino acid sequences for entries named in this document (tags omitted). Residues count along the entry.", "UniProt Q6P4F2, residues 53-183": "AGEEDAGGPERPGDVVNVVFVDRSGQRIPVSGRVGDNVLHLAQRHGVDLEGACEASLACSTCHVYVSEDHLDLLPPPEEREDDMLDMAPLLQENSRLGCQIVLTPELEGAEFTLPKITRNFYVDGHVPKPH"},
  "source": "paper PMC5014551",
  "key": {"[1]": {"molecular_target": "T1, recombinant human BOLA1, fluorescently labelled (human) (UniProt Q9Y3E2)", "T1 sequence (chain, NT-647 dye (Monolith NT Protein Labeling Kit RED))": "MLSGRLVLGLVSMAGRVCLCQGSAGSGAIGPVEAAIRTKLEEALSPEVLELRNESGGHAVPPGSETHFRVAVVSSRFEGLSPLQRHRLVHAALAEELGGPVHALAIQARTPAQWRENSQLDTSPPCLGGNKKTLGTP", "assay": "condition: 200 µM (highest concentration of the titration, methods); MST; 200 nM NT-647 labelled protein titrated with unlabelled protein from 200 µM to 6.1 nM; 50 mM KPi pH 7.4, 150 mM NaCl, 5% glycerol, 0.05 mg/mL BSA, 0.05% Tween20; 21°C; anaerobic; both purified"}, "[2]": {"molecular_target": "T2, recombinant human BOLA3, fluorescently labelled (human) (UniProt Q53S33)", "T2 sequence (chain, NT-647 dye (Monolith NT Protein Labeling Kit RED))": "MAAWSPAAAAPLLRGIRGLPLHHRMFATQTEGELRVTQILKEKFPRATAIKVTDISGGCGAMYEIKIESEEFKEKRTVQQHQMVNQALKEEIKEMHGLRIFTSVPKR", "assay": "condition: 200 µM (highest concentration of the titration, methods); MST; 200 nM NT-647 labelled protein titrated with unlabelled protein from 200 µM to 6.1 nM; 50 mM KPi pH 7.4, 150 mM NaCl, 5% glycerol, 0.05 mg/mL BSA, 0.05% Tween20; 21°C; anaerobic; both purified"}},
  "note": "Results are given in words; binding and its absence hold for the method and conditions named.",
  "data": [
    {"substance": "human [2Fe-2S] ferredoxin FDX2 (from UniProt Q6P4F2 53-183)", "values": [
      {"measurement": "binding", "setting": "[1]", "result": "no binding"},
      {"measurement": "binding", "setting": "[2]", "result": "no binding"}
    ]}
  ]
}
